For three compounds, T/C and survivor count results are on record in PubChem BioAssay AID248 (DTP/NCI, 2004).

The subject of this test is L1210 leukemia ip in BDF1 mice, survival T/C. Briefly: NCI In Vivo Anticancer Drug Screen. Data for tumor model L1210 Leukemia (intraperitoneal) in B6D2F1 (BDF1) mice. The settings on record: T/C endpoint: mean survival time, higher T/C = longer survival.

Structures are written as SMILES. The list shows only some results of the screen, not a fair sample: it covers a few groups of compounds. Other doses and runs of a compound may be missing. T/C: endpoint of the treated group in % of that of the vehicle group. Some entries give survivors of the animals treated and no T/C: the source files T/C as zero there, which appears to mark a toxic dose or a test without result, not a measured value. Some survivor counts are full or nearly so, which does not show that the dose was tolerated: the source hardly ever lists a survival T/C far under the control, and the zero likely stands for such cases as well. Counts of survivors are from the toxicity check (mostly the fifth day) where no day follows; animals may have died later. Schedule codes are those of the source, read here as Q, the interval in days (D) or hours (H), X, the number of doses. Some schedules carry Z or #; the key to these is not given. For survival time, this PubChem deposit counts one and a half times the control or more as active, and values a quarter to a half above the control carry no call in these data; other NCI protocols may use other cut-offs. Some doses were run more than once; the results are listed from low to high. Some T/C values are followed by the survivors on the day toxicity was checked, most often the fifth; where neither a count nor a note follows, no animal had died by that day.

As for `O[C@H](CNCCBr)[C@@H](O)CNCCBr`, the T/C (dose: 0.09 mg/kg/injection, schedule: Q01DX Z (ip), vehicle: methylcellulose (MC)) is 127 % of control; the T/C (dose: 0.1 mg/kg/injection, schedule: Q01DX Z (oral), vehicle: saline) was 106 % of control; the T/C (dose: 0.13 mg/kg/injection, schedule: Q01DX Z (ip), vehicle: methylcellulose (MC)) was 143 % of control; the T/C (dose: 0.2 mg/kg/injection, schedule: Q01DX Z (ip), vehicle: methylcellulose (MC)) was 179 % of control; the T/C (dose: 0.3 mg/kg/injection, schedule: Q01DX Z (ip), vehicle: methylcellulose (MC)) was 143 and 162 % of control; the T/C (dose: 0.3 mg/kg/injection, schedule: Q01DX Z (oral), vehicle: saline) is 101 % of control. The T/C was 181 and 200 % of control (dose: 0.5 mg/kg/injection, schedule: Q01DX Z (ip), vehicle: methylcellulose (MC)); 148 % of control (dose: 0.62 mg/kg/injection, schedule: Q#A X034 (ip), vehicle: saline); 182 and 215 % of control (dose: 0.76 mg/kg/injection, schedule: Q01DX Z (ip), vehicle: methylcellulose (MC)); 188 % of control (dose: 0.8 mg/kg/injection, schedule: Q01DX Z (ip), vehicle: methylcellulose (MC)); 106 % of control (dose: 1.0 mg/kg/injection, schedule: Q01DX Z (oral), vehicle: saline); 211 and 229 % of control (dose: 1.16 mg/kg/injection, schedule: Q01DX Z (ip), vehicle: methylcellulose (MC)). Also, the T/C is 210 % of control (dose: 1.2 mg/kg/injection, schedule: Q01DX Z (ip), vehicle: methylcellulose (MC)); 116 % of control (dose: 1.2 mg/kg/injection, schedule: Q01DX Z (oral), vehicle: saline); 185 % of control (dose: 1.25 mg/kg/injection, schedule: Q01DX017 (ip), vehicle: saline); 166 % of control (dose: 1.25 mg/kg/injection, schedule: Q02DX009 (ip), vehicle: saline); 211 % of control (dose: 1.25 mg/kg/injection, schedule: Q#A X034 (ip), vehicle: saline); 209 and 213 % of control (dose: 1.75 mg/kg/injection, schedule: Q01DX Z (ip), vehicle: methylcellulose (MC)). Further, the T/C by setting is: (dose: 1.8 mg/kg/injection, schedule: Q01DX Z (oral), vehicle: saline) 136 % of control; (dose: 2.5 mg/kg/injection, schedule: Q01DX001 (ip), vehicle: saline) 146 % of control; (dose: 2.5 mg/kg/injection, schedule: Q01DX017 (ip), vehicle: saline) 191 % of control [9 of 10 alive]; (dose: 2.5 mg/kg/injection, schedule: Q02DX009 (ip), vehicle: saline) 247 % of control; (dose: 2.5 mg/kg/injection, schedule: Q#A X034 (ip), vehicle: saline) 177 % of control; (dose: 2.6 mg/kg/injection, schedule: Q01DX Z (ip), vehicle: methylcellulose (MC)) 112 [4 of 6 alive] and 171 % of control. Moreover, the T/C (dose: 2.7 mg/kg/injection, schedule: Q01DX Z (oral), vehicle: saline) was 178 % of control; the T/C (dose: 3.0 mg/kg/injection, schedule: Q01DX Z (oral), vehicle: saline) is 186 % of control; the T/C (dose: 4.0 mg/kg/injection, schedule: Q01DX Z (oral), vehicle: saline) was 192 % of control; the T/C (dose: 5.0 mg/kg/injection, schedule: Q01DX001 (ip), vehicle: saline) is 160 % of control; the T/C (dose: 5.0 mg/kg/injection, schedule: Q01DX017 (ip), vehicle: saline) is 154 % of control; the T/C (dose: 5.0 mg/kg/injection, schedule: Q02DX009 (ip), vehicle: saline) was 188 % of control. Further, the T/C is, setting by setting: (dose: 6.0 mg/kg/injection, schedule: Q01DX Z (oral), vehicle: saline) 188 % of control; (dose: 9.0 mg/kg/injection, schedule: Q01DX Z (oral), vehicle: saline) 140 % of control; (dose: 10.0 mg/kg/injection, schedule: Q01DX001 (ip), vehicle: saline) 163 % of control; (dose: 10.0 mg/kg/injection, schedule: Q01DX017 (ip), vehicle: saline) 108 % of control; (dose: 10.0 mg/kg/injection, schedule: Q02DX009 (ip), vehicle: saline) 183 % of control; (dose: 20.0 mg/kg/injection, schedule: Q01DX001 (ip), vehicle: saline) 208 % of control. In addition, the T/C is 100 % of control (dose: 20.0 mg/kg/injection, schedule: Q02DX009 (ip), vehicle: saline) and 110 % of control (dose: 40.0 mg/kg/injection, schedule: Q01DX001 (ip), vehicle: saline). Besides, the survivor count was 10 of 10 (dose: 5.0 mg/kg/injection, schedule: Q#A X034 (ip), vehicle: saline); 6 of 6 (dose: 7.5 mg/kg/injection, schedule: Q01DX010 (oral), vehicle: saline); 6 of 6 (dose: 8.9 mg/kg/injection, schedule: Q01DX Z (oral), vehicle: saline); 6 of 10 (dose: 10.0 mg/kg/injection, schedule: Q#A X034 (ip), vehicle: saline); 6 of 6 (dose: 12.0 mg/kg/injection, schedule: Q01DX Z (oral), vehicle: saline); 5 of 6 (dose: 13.3 mg/kg/injection, schedule: Q01DX Z (oral), vehicle: saline). Moreover, the survivor count was 1 of 6 (dose: 15.0 mg/kg/injection, schedule: Q01DX010 (oral), vehicle: saline); 10 of 10 (dose: 20.0 mg/kg/injection, schedule: Q01DX017 (ip), vehicle: saline); 2 of 6 (dose: 30.0 mg/kg/injection, schedule: Q01DX010 (oral), vehicle: saline); 3 of 6 (dose: 30.0 mg/kg/injection, schedule: Q01DX Z (oral), vehicle: saline); 0 of 6 (dose: 60.0 mg/kg/injection, schedule: Q01DX010 (oral), vehicle: saline); 2 of 4 (dose: 80.0 mg/kg/injection, schedule: Q01DX001 (ip), vehicle: saline). The survivor count was 0 of 6 (dose: 120.0 mg/kg/injection, schedule: Q01DX010 (oral), vehicle: saline); 0 of 6 (dose: 240.0 mg/kg/injection, schedule: Q01DX010 (oral), vehicle: saline); 0 of 6 (dose: 480.0 mg/kg/injection, schedule: Q01DX010 (oral), vehicle: saline).

On to `O=C(O)c1ccccc1C(=O)c1ccc2ccccc2c1.O=C1c2cc([N+](=O)[O-])ccc2-c2c1cc([N+](=O)[O-])cc2[N+](=O)[O-]`, for which the T/C reads like this: (dose: 100.0 mg/kg/injection, schedule: Q01DX001 (ip), vehicle: Klucel (hydroxypropylcellulose) (HPC)) 106 % of control; (dose: 200.0 mg/kg/injection, schedule: Q01DX001 (ip), vehicle: Klucel (hydroxypropylcellulose) (HPC)) 106 % of control; (dose: 400.0 mg/kg/injection, schedule: Q01DX001 (ip), vehicle: Klucel (hydroxypropylcellulose) (HPC)) 115 % of control.

Regarding `COC(=O)C(C(=O)OC)C1=NCC(I)CS1` (stereo not given), the T/C by setting is: (dose: 37.5 mg/kg/injection, schedule: Q01DX009 (ip), vehicle: saline) 91 % of control; (dose: 75.0 mg/kg/injection, schedule: Q01DX001 (ip), vehicle: saline) 97 % of control; (dose: 75.0 mg/kg/injection, schedule: Q01DX009 (ip), vehicle: saline) 93 % of control; (dose: 75.0 mg/kg/injection, schedule: Q04DX003 (ip), vehicle: saline) 105 % of control; (dose: 150.0 mg/kg/injection, schedule: Q01DX001 (ip), vehicle: saline) 97 % of control; (dose: 150.0 mg/kg/injection, schedule: Q01DX009 (ip), vehicle: saline) 91 % of control [4 of 6 alive]. For the same compound, the T/C (dose: 150.0 mg/kg/injection, schedule: Q04DX003 (ip), vehicle: saline) is 103 % of control; the T/C (dose: 300.0 mg/kg/injection, schedule: Q01DX001 (ip), vehicle: saline) is 93 % of control [4 of 6 alive]; the T/C (dose: 300.0 mg/kg/injection, schedule: Q04DX003 (ip), vehicle: saline) is 96 % of control.
